Measurements reported in paper PMC11480477, “STIC2 selectively binds ribosome-nascent chain complexes in the cotranslational sorting of Arabidopsis thylakoid proteins” (The EMBO Journal, 2024).
Results are given in words; binding and its absence hold for the method and conditions named. Where a sequence is shown, tags or fusion partners need not be part of it.

What was measured:
[1] = biological target: T1, Alb4CΔIII-His (aa 334–499 lacking aa 397–414) (UniProt Q9FYL3); assay: condition: 1 mM His-STIC2 titrated into 0.1 mM Alb4CΔIII-His; ITC; His-STIC2 titrated (1.5 mM into 0.15 mM Alb3C-His or Alb3CΔIII-His; 1 mM into 0.1 mM Alb4C-His or Alb4CΔIII-His); 20 mM HEPES, 150 mM NaCl, pH 8.0, 25 °C; one-site binding model; two to five independent experiments; both purified
T1 sequence: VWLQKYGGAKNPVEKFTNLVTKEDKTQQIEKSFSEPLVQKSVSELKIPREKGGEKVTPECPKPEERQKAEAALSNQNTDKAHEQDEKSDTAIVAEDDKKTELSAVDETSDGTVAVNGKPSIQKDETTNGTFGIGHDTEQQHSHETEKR

[2] = biological target: T2, Alb3CΔIII-His (aa 350–462 lacking aa 386–403) (UniProt Q8LBP4); assay: condition: 1.5 mM His-STIC2 titrated into 0.15 mM Alb3CΔIII-His; ITC; His-STIC2 titrated (1.5 mM into 0.15 mM Alb3C-His or Alb3CΔIII-His; 1 mM into 0.1 mM Alb4C-His or Alb4CΔIII-His); 20 mM HEPES, 150 mM NaCl, pH 8.0, 25 °C; one-site binding model; two to five independent experiments; both purified
T2 sequence: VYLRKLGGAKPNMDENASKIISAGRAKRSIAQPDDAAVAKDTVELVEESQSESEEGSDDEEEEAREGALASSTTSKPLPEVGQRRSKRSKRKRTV

- binding [1]: no binding
- binding [2]: no binding
B1: His-STIC2 (mature STIC2, aa 49–182) (natural protein, A. thaliana, UniProt O82230 49-182, looked up)
chain: VNGLFGGGNKDNNSEDGQSKAGIFGNMQNMYETVKKAQMVVQVEAVRVQKELAAAEFDGYCAGELVKVTLSGNQQPIRTDITEAAMELGSEKLSQLVTEAYKDAHAKSVVAMKERMSDLAQSLGMPPGLSEGMK
notes: STIC2 of A. thaliana, mature protein aa 49–182 (transit peptide predicted with TargetP), in pET-Duet1; The N-terminal place of the tag is read from the printed name His-STIC2; also called recombinant mature His-STIC2; suppressor of tic40 protein 2; source: E. coli Rosetta2 (DE3) or BL21 (DE3), purified (HisTrap HP, native conditions); not shown: His tag, N-terminal, kept
